{"sequences": {"note": "The chains behind the UniProt entries cited, without tags or fusion partners.", "UniProt P35367, whole entry": "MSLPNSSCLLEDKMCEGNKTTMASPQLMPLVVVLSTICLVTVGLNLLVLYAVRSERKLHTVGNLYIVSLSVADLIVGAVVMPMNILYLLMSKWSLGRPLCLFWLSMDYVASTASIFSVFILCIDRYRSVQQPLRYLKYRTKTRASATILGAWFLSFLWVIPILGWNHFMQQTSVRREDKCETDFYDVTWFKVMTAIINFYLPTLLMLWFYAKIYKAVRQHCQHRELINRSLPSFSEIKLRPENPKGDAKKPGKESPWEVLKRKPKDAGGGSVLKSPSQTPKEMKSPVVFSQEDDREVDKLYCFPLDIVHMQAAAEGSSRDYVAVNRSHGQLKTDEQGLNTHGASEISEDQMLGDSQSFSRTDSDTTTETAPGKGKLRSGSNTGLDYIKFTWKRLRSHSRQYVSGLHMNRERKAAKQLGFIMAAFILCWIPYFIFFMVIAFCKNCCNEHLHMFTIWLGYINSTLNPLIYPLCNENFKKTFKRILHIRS"}, "source": "patent US9937166B2", "about": "(INFLAMMATORY RESPONSE RESEARCH, INC., priority 2013, dated 2018)", "origin": "cited, not measured here", "key": {"[1]": {"details": "in vivo"}, "[2]": {"target": "H1 receptor (Homo sapiens, UniProt P35367)"}}, "data": [{"smiles": "O=C(O)COCCN1CCN([C@H](c2ccccc2)c2ccc(Cl)cc2)CC1", "note": "[levocetirizine]", "values": [{"measurement": "Time to peak plasma level", "setting": "[1]", "value": 0.9, "unit": "h"}, {"measurement": "Receptor affinity in an acidic ph, increased", "setting": "[2]", "value": "increased 5×"}]}]}
